# The other results are listed elsewhere or left out. Single values are uncertain, as repeats are few or missing.
# Tested on: Saccharomyces cerevisiae BY4743
# Assay: growth (OD600) with compound + IPBC relative to untreated control; higher = less growth inhibition
# Conditions: compound concentration: 133 uM; IPBC concentration: 0.5 ug/ml; 20 h
# Description: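 NMCCC compounds (133 uM) combined with IPBC (0.5 ug/ml) against Saccharomyces cerevisiae BY4743 in YPD, 96-well plates. Growth was read as OD600 at 20 h and expressed as % of the untreated control. Single pass.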
row,SMILES,growth [%]
1,CN(Cc1ccc(Cl)s1)C(=O)CSc1n[nH]c(-c2cccs2)n1 + CCCCNC(=O)OCC#CI [3-iodo-2-propynyl butylcarbamate (IPBC)],97.1
2,CCS(=O)(=O)N1Cc2ccccc2CC1C(=O)Nc1ccc(Br)cc1F (stereo not given) + CCCCNC(=O)OCC#CI [3-iodo-2-propynyl butylcarbamate (IPBC)],93.4
3,CCc1ccc(OC(C)C(=O)Nc2ccc3nsnc3c2)cc1 (stereo not given) + CCCCNC(=O)OCC#CI [3-iodo-2-propynyl butylcarbamate (IPBC)],72.7
4,CCOC(=O)c1cc(Oc2ccc(C#N)cn2)cc(C(=O)OCC)c1 + CCCCNC(=O)OCC#CI [3-iodo-2-propynyl butylcarbamate (IPBC)],84.3
5,COC(=O)\C1=C\N\C=C(/C1C2=CC=C(OC)C(=C2)O)C(=O)OC + CCCCNC(=O)OCC#CI [3-iodo-2-propynyl butylcarbamate (IPBC)],93
6,Nc1cn(-c2ccccc2)nc1-c1ccc(Cl)cc1 + CCCCNC(=O)OCC#CI [3-iodo-2-propynyl butylcarbamate (IPBC)],92.9
7,CS(=O)(=O)Nc1nc2ccc(NC(=O)COc3ccccc3)cc2s1 + CCCCNC(=O)OCC#CI [3-iodo-2-propynyl butylcarbamate (IPBC)],85.7
8,CCOC(=O)c1ccc(CSc2nc[nH]n2)o1 + CCCCNC(=O)OCC#CI [3-iodo-2-propynyl butylcarbamate (IPBC)],91.1
9,Cc1ccn(CCC(=O)NC(C)Cc2ccco2)n1 (stereo not given) + CCCCNC(=O)OCC#CI [3-iodo-2-propynyl butylcarbamate (IPBC)],95.5
10,COC(=O)c1cc2oc(C)cc2n1CC(=O)N1CC(C)CC(C)C1 (stereo not given) + CCCCNC(=O)OCC#CI [3-iodo-2-propynyl butylcarbamate (IPBC)],99.5
11,CCc1c(C)nc(SCC(=O)N2CCN(c3ccccc3OC)CC2)nc1O + CCCCNC(=O)OCC#CI [3-iodo-2-propynyl butylcarbamate (IPBC)],105
12,Cc1nn(C)c(C)c1CNS(=O)(=O)c1ccc2c(c1)oc(=O)n2C + CCCCNC(=O)OCC#CI [3-iodo-2-propynyl butylcarbamate (IPBC)],85.6
13,CCOc1ccccc1-n1nnnc1SCC(=O)NC(=O)Cc1ccccc1 + CCCCNC(=O)OCC#CI [3-iodo-2-propynyl butylcarbamate (IPBC)],90.6
14,CCOC(=O)Cn1c2ccc(F)cc2c2nc(C)sc21 + CCCCNC(=O)OCC#CI [3-iodo-2-propynyl butylcarbamate (IPBC)],79.9
15,CCC(CC)n1nc(O)c2c(C)cc(C)nc21 + CCCCNC(=O)OCC#CI [3-iodo-2-propynyl butylcarbamate (IPBC)],104
16,CC/1=C/C(=O)N(/C(=C1C(=O)OCC(=O)NC2(CCCC2)C#N)C)C3=CC=CC=C3 + CCCCNC(=O)OCC#CI [3-iodo-2-propynyl butylcarbamate (IPBC)],96.1
17,CC(NS(=O)(=O)c1ccc(Cl)c(Cl)c1)C(=O)Nc1cccc(C#N)c1 (stereo not given) + CCCCNC(=O)OCC#CI [3-iodo-2-propynyl butylcarbamate (IPBC)],87.5
18,CCOC(=O)C1=C(C)N=C(C)/C(=C(/O)OCC)C1c1ccc(C)o1 (stereo not given) + CCCCNC(=O)OCC#CI [3-iodo-2-propynyl butylcarbamate (IPBC)],77.7
19,CCCCn1nc(C)c(C(=O)NC(c2nc3ccccc3[nH]2)C(C)C)c1Cl (stereo not given) + CCCCNC(=O)OCC#CI [3-iodo-2-propynyl butylcarbamate (IPBC)],106
20,CC(NC(=O)CN1CCN(Cc2ccc(Br)s2)CC1)c1ccc(F)cc1 (stereo not given) + CCCCNC(=O)OCC#CI [3-iodo-2-propynyl butylcarbamate (IPBC)],76.5

# A second format for part of the listing above.
row | SMILES | growth [%]
7 | CS(=O)(=O)Nc1nc2ccc(NC(=O)COc3ccccc3)cc2s1 + CCCCNC(=O)OCC#CI [3-iodo-2-propynyl butylcarbamate (IPBC)] | 85.7
11 | CCc1c(C)nc(SCC(=O)N2CCN(c3ccccc3OC)CC2)nc1O + CCCCNC(=O)OCC#CI [3-iodo-2-propynyl butylcarbamate (IPBC)] | 105

# (list continues)

row,SMILES,growth [%]
1,COc1cc(C(=O)OCC(=O)N(C)CC2COc3ccccc3O2)ccc1OC(C)C (stereo not given) + CCCCNC(=O)OCC#CI [3-iodo-2-propynyl butylcarbamate (IPBC)],100
2,COC1=CC(=CC(=C1OC)Br)C\2\C(=C(\N)O\C3=C2C(=O)CCC3)C#N (stereo not given) + CCCCNC(=O)OCC#CI [3-iodo-2-propynyl butylcarbamate (IPBC)],87.3
3,CCOC(F)(C(F)(F)F)C(F)(F)OC(F)(CC(F)(F)F)\C1=N\CCN1 (stereo not given) + CCCCNC(=O)OCC#CI [3-iodo-2-propynyl butylcarbamate (IPBC)],100
4,CCOC(=O)c1cc(C(=O)N2CCOCC2)nn1C + CCCCNC(=O)OCC#CI [3-iodo-2-propynyl butylcarbamate (IPBC)],92
5,COc1ccccc1-c1noc(CSc2n[nH]c(C(C)C)n2)n1 + CCCCNC(=O)OCC#CI [3-iodo-2-propynyl butylcarbamate (IPBC)],111
6,CCOc1cc(C)nn1-c1ccccc1 + CCCCNC(=O)OCC#CI [3-iodo-2-propynyl butylcarbamate (IPBC)],92.8
7,CCOC(=O)c1ccc(NC(=O)CSc2nc3[nH]cc(Br)c(C)c-3n2)cc1 + CCCCNC(=O)OCC#CI [3-iodo-2-propynyl butylcarbamate (IPBC)],83.1
8,COc1ccc(C(=O)OC(C)c2ccccc2Cl)cc1S(=O)(=O)N1CCCC1 (stereo not given) + CCCCNC(=O)OCC#CI [3-iodo-2-propynyl butylcarbamate (IPBC)],93.3
9,COC(=O)C(OC(=O)c1ccc(Cn2cncn2)cc1)c1ccccc1 (stereo not given) + CCCCNC(=O)OCC#CI [3-iodo-2-propynyl butylcarbamate (IPBC)],102
10,COc1cc(CSc2nnc(C)s2)c(OC)cc1Br + CCCCNC(=O)OCC#CI [3-iodo-2-propynyl butylcarbamate (IPBC)],98.8
11,CCOc1ccc(CNC(=O)CC(c2ccccc2C)n2cccc2)cc1OC (stereo not given) + CCCCNC(=O)OCC#CI [3-iodo-2-propynyl butylcarbamate (IPBC)],100
12,CCCC(=O)N(c1nc(C)c(C(C)=O)s1)C1CC1 + CCCCNC(=O)OCC#CI [3-iodo-2-propynyl butylcarbamate (IPBC)],102
13,COc1cccc(NC(=O)Cc2csc(C(C)C)n2)c1 + CCCCNC(=O)OCC#CI [3-iodo-2-propynyl butylcarbamate (IPBC)],92.8
14,COc1cccc(N2CC(C(=O)NCc3ccccc3S(=O)(=O)N(C)C)CC2=O)c1 (stereo not given) + CCCCNC(=O)OCC#CI [3-iodo-2-propynyl butylcarbamate (IPBC)],103
15,CCOC(CNC(=O)c1cc2c(s1)-c1ccccc1OC2)OCC + CCCCNC(=O)OCC#CI [3-iodo-2-propynyl butylcarbamate (IPBC)],104
16,CCOc1ccccc1NC(=O)c1cnn2cccnc12 + CCCCNC(=O)OCC#CI [3-iodo-2-propynyl butylcarbamate (IPBC)],99.9
17,COc1cc(OC)c(C(=O)Nc2ccc3c(c2)NC(=O)C(C)O3)cc1OC (stereo not given) + CCCCNC(=O)OCC#CI [3-iodo-2-propynyl butylcarbamate (IPBC)],95.1
18,CCOc1ccc2nc(SC3CCOC3=O)sc2c1 (stereo not given) + CCCCNC(=O)OCC#CI [3-iodo-2-propynyl butylcarbamate (IPBC)],91
19,Cc1ccc(-c2ccc(CCC(=O)Nc3ccc(C(N)=O)cc3)o2)cc1C + CCCCNC(=O)OCC#CI [3-iodo-2-propynyl butylcarbamate (IPBC)],86.4
20,COC1=CC=C(N[S](=O)(=O)C2=CC=C3\N=C/N[S](=O)(=O)C3=C2)C=C1 + CCCCNC(=O)OCC#CI [3-iodo-2-propynyl butylcarbamate (IPBC)],101
